{"source": "PubChem BioAssay AID743454 (Peter MacCallum Cancer Centre, 2014)", "aim": "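Knock-downs lowering viability or raising caspase 3/7 activity in vorinostat-treated resistant cells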 (primary screen)", "system": "human HCT116-VR colon cancer cells, selected for vorinostat resistance", "knock-down reagent": "siRNA pool against human genes, 40 nM siRNA pool", "duration": "vorinostat for 24 h, read-out about 72 h after transfection", "treatment": "vorinostat at 2.5 µM final", "measured": "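Two measures, CellTiter-Fluor viability and luminescent caspase 3/7 activity, each as fold change against same-plate mock wells, mean of duplicates, then screen-wide robust z-score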", "scale": "viability robust z-score: higher = more viable cells than screen typical; caspase robust z-score: higher = more caspase 3/7 activity than screen typical", "rule for the call": "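Hits are knock-downs in viability class RV1/RV2 or caspase class CA1/CA2, excluding ones that killed cells in the no-drug cell-count arm; hits then retested with single siRNAs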", "note": "This is a random part of about 18,000 reagents. 450 of them (2.5%) count as active. 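Single biological run; no consistent viability z cut-off exists, so the class columns, not z-scores, define the calls.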"}
{"target gene":"TAX1BP3 (Tax1 binding protein 3)","viability hit class":"no change","caspase hit class":"no change","viability robust z-score":0.06,"caspase robust z-score":-1.22,"Outcome":"inactive"}
{"target gene":"GRP (gastrin releasing peptide)","viability hit class":"RV2 (reduced viability)","caspase hit class":"no change","viability robust z-score":-3.52,"caspase robust z-score":2.04,"Outcome":"active"}
{"target gene":"RABL2A (RAB, member of RAS oncogene family like 2A)","viability hit class":"no change","caspase hit class":"no change","viability robust z-score":-0.74,"caspase robust z-score":0.58,"Outcome":"inactive"}
{"target gene":"ZC3H6 (zinc finger CCCH-type containing 6)","viability hit class":"no change","caspase hit class":"no change","viability robust z-score":0.62,"caspase robust z-score":-0.5,"Outcome":"inactive"}
{"target gene":"ATG5 (autophagy related 5)","viability hit class":"no change","caspase hit class":"no change","viability robust z-score":0.68,"caspase robust z-score":0.05,"Outcome":"inactive"}
{"target gene":"AKT3 (AKT serine/threonine kinase 3)","viability hit class":"no change","caspase hit class":"no change","viability robust z-score":0.56,"caspase robust z-score":-0.68,"Outcome":"inactive"}
{"target gene":"FEZF2 (FEZ family zinc finger 2)","viability hit class":"no change","caspase hit class":"no change","viability robust z-score":-0.09,"caspase robust z-score":0.26,"Outcome":"inactive"}
{"target gene":"BLNK (B cell linker)","viability hit class":"no change","caspase hit class":"no change","viability robust z-score":0.26,"caspase robust z-score":1.52,"Outcome":"inactive"}
{"target gene":"SLC31A1","viability hit class":"no change","caspase hit class":"no change","viability robust z-score":-2.01,"caspase robust z-score":-0.54,"Outcome":"inactive"}
{"target gene":"SEMA6B (semaphorin 6B)","viability hit class":"no change","caspase hit class":"no change","viability robust z-score":0.76,"caspase robust z-score":0.4,"Outcome":"inactive"}
{"target gene":"FIRRM (FIGNL1 interacting regulator of recombination and mitosis)","viability hit class":"no change","caspase hit class":"no change","viability robust z-score":-1.2,"caspase robust z-score":-0.7,"Outcome":"inactive"}
{"target gene":"STK32B (serine/threonine kinase 32B)","viability hit class":"no change","caspase hit class":"no change","viability robust z-score":0.11,"caspase robust z-score":0.88,"Outcome":"inactive"}
{"target gene":"MYDGF (myeloid derived growth factor)","viability hit class":"no change","caspase hit class":"no change","viability robust z-score":-0.16,"caspase robust z-score":3.09,"Outcome":"inactive"}
{"target gene":"SLC1A6","viability hit class":"no change","caspase hit class":"no change","viability robust z-score":-1.58,"caspase robust z-score":0.47,"Outcome":"inactive"}

2 of these entries in another layout:
| target gene | viability hit class | caspase hit class | viability robust z-score | caspase robust z-score | Outcome |
| --- | --- | --- | --- | --- | --- |
| FIRRM (FIGNL1 interacting regulator of recombination and mitosis) | no change | no change | -1.2 | -0.7 | inactive |
| STK32B (serine/threonine kinase 32B) | no change | no change | 0.11 | 0.88 | inactive |
